{
  "source": "paper PMC10258333",
  "binders": {"B1": {"name": "HD2B fused to cYFP (protein, UniProt Q56WH4 1-306)", "chain": "MEFWGVAVTPKNATKVTPEEDSLVHISQASLDCTVKSGESVVLSVTVGGAKLVIGTLSQDKFPQISFDLVFDKEFELSHSGTKANVHFIGYKSPNIEQDDFTSSDDEDVPEAVPAPAPTAVTANGNAGAAVVKADTKPKAKPAEVKPAEEKPESDEEDESDDEDESEEDDDSEKGMDVDEDDSDDDEEEDSEDEEEEETPKKPEPINKKRPNESVSKTPVSGKKAKPAAAPASTPQKTEEKKKGGHTATPHPAKKGGKSPVNANQSPKSGGQSSGGNNNKKPFNSGKQFGGSNNKGSNKGKGKGRA"}, "B2": {"name": "HSI2-LIKE1 (HSL1) fused to cYFP (protein, UniProt Q5CCK4 1-780)", "chain": "MESIKVCMNALCGAASTSGEWKKGWPMRSGDLASLCDKCGCAYEQSIFCEVFHAKESGWRECNSCDKRLHCGCIASRFMMELLENGGVTCISCAKKSGLISMNVSHESNGKDFPSFASAEHVGSVLERTNLKHLLHFQRIDPTHSSLQMKQEESLLPSSLDALRHKTERKELSAQPNLSISLGPTLMTSPFHDAAVDDRSKTNSIFQLAPRSRQLLPKPANSAPIAAGMEPSGSLVSQIHVARPPPEGRGKTQLLPRYWPRITDQELLQLSGQYPHLSNSKIIPLFEKVLSASDAGRIGRLVLPKACAEAYFPPISLPEGLPLKIQDIKGKEWVFQFRFWPNNNSRMYVLEGVTPCIQSMQLQAGDTVTFSRTEPEGKLVMGYRKATNSTATQMFKGSSEPNLNMFSNSLNPGCGDINWSKLEKSEDMAKDNLFLQSSLTSARKRVRNIGTKSKRLLIDSVDVLELKITWEEAQELLRPPQSTKPSIFTLENQDFEEYDEPPVFGKRTLFVSRQTGEQEQWVQCDACGKWRQLPVDILLPPKWSCSDNLLDPGRSSCSAPDELSPREQDTLVRQSKEFKRRRLASSNEKLNQSQDASALNSLGNAGITTTGEQGEITVAATTKHPRHRAGCSCIVCSQPPSGKGKHKPSCTCTVCEAVKRRFRTLMLRKRNKGEAGQASQQAQSQSECRDETEVESIPAVELAAGENIDLNSDPGASRVSMMRLLQAAAFPLEAYLKQKAISNTAGEQQSSDMVSTEHGSSSAAQETEKDTTNGAHDPVN"}, "B3": {"name": "HIGH-LEVEL EXPRESSION OF SUGAR INDUCIBLE2 (HSI2) fused to cYFP (protein, UniProt Q8W4L5 1-790)", "chain": "MFEVKMGSKMCMNASCGTTSTVEWKKGWPLRSGLLADLCYRCGSAYESSLFCEQFHKDQSGWRECYLCSKRLHCGCIASKVTIELMDYGGVGCSTCACCHQLNLNTRGENPGVFSRLPMKTLADRQHVNGESGGRNEGDLFSQPLVMGGDKREEFMPHRGFGKLMSPESTTTGHRLDAAGEMHESSPLQPSLNMGLAVNPFSPSFATEAVEGMKHISPSQSNMVHCSASNILQKPSRPAISTPPVASKSAQARIGRPPVEGRGRGHLLPRYWPKYTDKEVQQISGNLNLNIVPLFEKTLSASDAGRIGRLVLPKACAEAYFPPISQSEGIPLKIQDVRGREWTFQFRYWPNNNSRMYVLEGVTPCIQSMMLQAGDTVTFSRVDPGGKLIMGSRKAANAGDMQGCGLTNGTSTEDTSSSGVTENPPSINGSSCISLIPKELNGMPENLNSETNGGRIGDDPTRVKEKKRTRTIGAKNKRLLLHSEESMELRLTWEEAQDLLRPSPSVKPTIVVIEEQEIEEYDEPPVFGKRTIVTTKPSGEQERWATCDDCSKWRRLPVDALLSFKWTCIDNVWDVSRCSCSAPEESLKELENVLKVGREHKKRRTGESQAAKSQQEPCGLDALASAAVLGDTIGEPEVATTTRHPRHRAGCSCIVCIQPPSGKGRHKPTCGCTVCSTVKRRFKTLMMRRKKKQLERDVTAAEDKKKKDMELAESDKSKEEKEVNTARIDLNSDPYNKEDVEAVAVEKEESRKRAIGQCSGVVAQDASDVLGVTELEGEGKNVREEPRVSS"}, "B4": {"name": "HSI2-myc (protein, UniProt Q8W4L5 1-790)", "chain": "B3 chain"}, "B5": {"name": "HSL1-myc (protein, UniProt Q5CCK4 1-780)", "chain": "B2 chain"}},
  "key": {"[1]": {"target": "HD2A fused to nYFP (Arabidopsis thaliana)", "experiment": "split reporter; BiFC with nYFP and cYFP fusions from pBiFCt-2in1-NN in Arabidopsis protoplasts; YFP signal by confocal microscopy after 16 h to 24 h in the dark"}, "[2]": {"target": "HD2A-GFP (Arabidopsis thaliana)", "experiment": "co-IP; HSI2-myc or HSL1-myc transiently expressed in protoplasts of HD2A-GFP or HD2B-GFP lines; total protein extract (50 mM Tris-HCl pH 8, 150 mM NaCl, 0.1% Nonidet P-40) on GFP-Trap agarose beads at 4°C overnight; immunoblot with anti-Myc antibody"}},
  "note": "No constants are given. Whether binding was seen depends on the method and setting. In cells and extracts the contact can be indirect. Binding can be weak; no strength is given. Tags and fused reporters may be left off the sequences shown.",
  "data": [
    {"binder": "B1", "values": [
      {"measurement": "binding", "setting": "[1]", "result": "binds"}
    ]},
    {"binder": "B2", "values": [
      {"measurement": "binding", "setting": "[1]", "result": "binds"}
    ]},
    {"binder": "B3", "values": [
      {"measurement": "binding", "setting": "[1]", "result": "binds"}
    ]},
    {"binder": "B4", "values": [
      {"measurement": "binding", "setting": "[2]", "result": "binds"}
    ]},
    {"binder": "B5", "values": [
      {"measurement": "binding", "setting": "[2]", "result": "binds"}
    ]}
  ]
}
